# Assay results from US20050266088A1, “Formulation for fast dissolution of lipophilic compounds” (Rijksuniversiteit Groningen, priority 2002, published 2005).
# Test: Dissolution experiments on tablets (Prolabo dissolution apparatus)
# Assay type: physicochemical
# Protocol: After compaction the tablets were weighed and subsequently submitted to dissolution experiments.
# Dissolution was performed on a Prolabo dissolution apparatus, Rowa Techniek B.V. All experiments were conducted at 37° C. in 1000 mL under constant stirring with 100 rpm. Tablets prepared from physical mixtures and solid dispersions were analysed in triplicate.
# To determine the sugar concentrations the Anthrone assay was used. (Scott et al. 1953) Samples were taken at appropriate intervals during the dissolution. […] Due to the enthalpy of mixing, the sample was heated to its boiling point. The boiling mixture was then cooled to room temperature. After 45 minutes the sample was vortexed and […] of sample was analysed in the plate reader at 630 nm. […] In every Anthrone assay a calibration curve of the appropriate sugar in the appropriate medium was established.
smiles,measurement,value
"CN1C(=O)CN=C(c2ccccc2)c2cc(Cl)ccc21 [diazepam, Diazepam]",dissolution of drug from physical mixture tablets,dissolved slower
